The values that follow come from patent publication US10323085B2, “Methods of treating fibromyalgia” (Teva Pharmaceuticals International GmbH, priority 2008, dated 2019).

Entries after “also recorded” stand apart in the source; their conditions may differ.

This series concerns 25-37 human α-CGRP fragment. Put plainly: Alanine scan of C-terminal CGRP fragment (CGRP 25-37) by Biacore, epitope identification. Type of series: binding. The note with it: Fab fragments of G1, 25° C. How it is done: Interaction analysis was conducted at 25° C. on a Biacore 3000™ system equipped with streptavidin-coated (SA) sensor chips (Biacore AB, Uppsala, Sweden) using a standard Biacore running buffer (HBS-P). […] Each amino acid between position 27-37 was then mutated individually to alanine and expressed the fold loss in affinity compared to the wild-type fragment. N-biotinylated fragments were captured on individual flow cells at low levels (typically 100 response units) to provide the reaction surfaces, while an unmodified flow cell served as a reference channel. Purified Fab fragments of antibody G1 were generated. Fab fragments were titrated over the chip using 1 μM as the top concentration of a two-fold dilution series. Association and dissociation phases were monitored at 100 μl/min for 1 minute and 5 minutes respectively. Surfaces were regenerated with a mixture of 35% ethanol+25 mM NaOH+0.5M NaCl.
In general terms: In SPR one partner is held on a chip, and binding of the other changes the refractive index at the surface.

Consider “G1: humanized IgG2Δa monoclonal anti-CGRP antagonist antibody from expression vectors ATCC PTA-6867 and PTA-6866; variable regions SEQ ID Nos. 1 and 2”, for which the “binding epitope (alanine scan)” value is given as “last 5 C-terminal amino acids, i.e. from G33A to F37A; also recorded: binds to the C-terminal region of human α-CGRP”.
